PMC10163288
The list shows a part of the results.

B1: il10ra_site1_normal_mot_HHH_b2_07006_000000108_0001_1_19_H_._HHH_b1_07927_af2_0001_0000200003_0000001_0 (protein)
chain: SSSSSNDEVYELLRELIELVKEGDEEQFERLVEEIRKLIEELGNEVLRHILEFLERLFHSSSSSS
B2: il10ra_site1_normal_mot_HHH_b2_05813_000000266_0001_1_19_H_._ems_3hC_1310_0001_af2_0001_0000100001_0000002_0_af2pred_0001 (protein)
chain: SETEELIILLARAAAEAEKRNDEEAARLLLRAAVLLHRALLRNDEELQERANEFAKKVIEEAESS
B3: il10ra_site1_sap_25_mot_HHH_b1_05609_af2_000000134_0001_1_18_H_._HHH_b2_05552_0001_0000400043_0000002_0_0001 (protein)
chain: SSSSSSSEYREAYKLIEEAFKIEDEEEVRRLVEEALELAEEGNNWVALMAIRHALKVLESSSSSS
B4: il10ra_site1_normal_mot_HHH_b1_01082_af2_000000031_0001_3_19_H_._ems_3hC_559_0001_0000100003_0000002_0 (protein)
chain: SEELYEFLKEVIEELKEAWENNDPEKVEEIAEEAREVLEKLAKTENLREHAERQVEFLARRLKSS
B5: il10ra_site1_normal_mot_HHH_b1_06057_000000129_0001_22_38_H_._HHH_b1_06187_0001_0000100002_0000001_0 (protein)
chain: SSSSTLEESVKFALRVARQQREEGDPEAARELLEKLLELLKEAGDEELFEEVERLLEELEKSSSS
B6: il10ra_site1_sap_25_mot_HHH_b2_08143_000000031_0001_38_55_H_._HHH_b1_08602_af2_0001_0000800026_0000001_0_0001 (protein)
chain: SSSSSDVEEIFELIEEILRLIKDGDEEEARELLEELRELIEKAGSWVFRYSLEVLERELNSSSSS
B7: il10ra_site1_normal_mot_HHH_b2_00033_000000036_0001_41_54_H_._HHH_b2_05176_af2_0002_0000400015_0000001_0 (protein)
chain: SSSSSEEEEELKELLEKAKELIENGNPQEALEVLAEAVRLALKLGDQEAFQQIWELIKRLGSSSS
B8: il10ra_site1_normal_mot_HHH_b1_06789_af2_000000041_0001_1_20_H_._HHH_b2_05831_af2_0001_0000600036_0000002_0_af2pred_0001 (protein)
chain: SSSSSSSHEIDVRIALKVAKLTDDEEMIKRALEIAERTARIGNDPELEQLVEEVKEELESSSSSS
B9: il10ra_site1_sap_13_mot_8756ee2cf497b5429c717dfc0c0bcfd6_0001_000000186_0001_1_13_H_._HHH_b2_05518_af2_0001_0000600027_0000001_0_0001 (protein)
chain: SSSSDLEELARAAVRLIEQAIEWGDEERAKFALLALEMAAEETNDPELRELLEELEKLLRGSSSS
B10: il10ra_site1_normal_mot_HHH_b1_06994_000000193_0001_40_55_H_._HHH_b2_05823_0001_0000200021_0000001_1 (protein)
chain: SSSSSEVEELIRATARLARQAREAGDDRTVEFLLLAMEILLRENNDEEAEEILEELRQELSSSSS
B11: il10ra_site1_normal_mot_HHH_b2_06602_000000226_0001_1_16_H_._ems_3hM_3525_af2_0001_0000500014_0000001_0_af2pred_0001 (protein)
chain: SSSEEEIYRLLVKLYRIALKRNDEELEEIVKEISIIVAELLQNGDEERAKKVAEEAEEIVEEKSS
B12: il10ra_site1_normal_mot_HHH_b1_02997_000000220_0001_39_52_H_._HHH_b2_07229_0001_0000200012_0000001_0_af2pred_0001 (protein)
chain: SSSSSEEKREALELLREALELRRQGNPEEAEELVREALELAREAGDPELEFLAEFLLRQLSSSSS
B13: il10ra_site1_sap_24_mot_HHH_b1_03559_000000151_0001_22_39_H_._HHH_b1_08582_0001_0000300017_0000001_0_0001 (protein)
chain: SSSSSEIEEEIEKLRKELEELAEKGDLERFARVFARILRLVYQLGDEELLRELWRALKRQESSSS
B14: il10ra_site1_normal_mot_6bb093d23f5042b6c551c363657da53b_0001_1_000000153_0001_51_65_H_._HHH_b2_07765_af2_0001_0000500007_0000001_0 (protein)
chain: SSSSSSDELEELIEKIEEALEEGDEELVRELLQKLSRYAVELNDHEASRFAIEVAEELESSSSSS
B15: il10ra_site1_normal_mot_HHH_b1_05333_000000049_0001_1_19_H_._HHH_b1_03230_0001_0000100008_0000001_0 (protein)
chain: SSSSDVFERSLEIAKRALKLLLEAGDPEAAEYLFEVVRRHLEEAGNEELVQELEEFFEELSSSSS
B16: il10ra_site1_sap_28_mot_HHH_b2_03183_af2_000000055_0001_40_56_H_._HHH_b1_01516_0001_0000600037_0000001_0_0001 (protein)
chain: SSSSSMAEELAEAVERIAKQAYENGNPESARRLLEAALLVVKELGDEELLEELQELLEELSSSSS
B17: il10ra_site1_normal_mot_HHH_b2_07579_000000275_0001_1_19_H_._HHH_b2_06013_0001_0000300024_0000002_0 (protein)
chain: SSSSSDLAQEVIELIREALQIPDPEEAREVAEEALRLAEEIGNEVLRFSAEHVLRDIERGSSSSS
B18: il10ra_site1_sap_14_mot_HHH_b1_07641_af2_000000285_0001_1_21_H_._HHH_b2_06184_0001_0000100001_0000002_0_0001 (protein)
chain: SSSSNEANERVMKLLEEASEAAQNGDPEEAREILEEAERIAEEGGNPILEMQVRWMLERISSSSS
B19: il10ra_site1_sap_21_mot_49468d6c54d8157f7969f91124172a68_0001_af2_000000173_0001_37_51_H_._d30c92881be5d2f229e465dffc40e224_0001_af2_0001_0000600012_0000001_0_0 … (protein)
chain: SSSSSDEEQKLLELLLEAFRLALRGNPEEAEKLLEEAEELARELGDERALRMVEDLLRALSSSSS
B20: il10ra_site1_sap_21_mot_HHH_b1_07571_000000144_0001_42_58_H_._HHH_b2_00141_0001_0000400034_0000001_0_0001 (protein)
chain: SSSSDEEAQEYARRALHFVKALGDKRLTRAAILTVRRLLKETGDPELEKVLEELEELLERGSSSS
B21: il10ra_site1_normal_mot_05ca327611f5605f0dd8494b449afcbf_0001_1_000000248_0001_35_51_H_._HHH_b1_03085_af2_0001_0000600051_0000001_0 (protein)
chain: SSSSNTEEAQELAREAAELLRNGNPEEAHRIAEEALELAEKLGNFALAFAIRLLLEAIERASSSS
B22: il10ra_site1_normal_mot_31949d1e7b999570dbb3257a17d00b36_0001_af2_000000006_0001_15_30_H_._HEEHE_2118_0001_0000500016_0000001_0 (protein)
chain: DRLEIFSRAVEYFAEHAGVPHVEVSVSNGEVEVTFEGDDEIARDASEAVRFSARSIGIKVEVTVE
B23: il10ra_site1_sap_11_mot_HHH_b2_01729_af2_000000109_0001_43_56_H_._ems_3hC_1028_0002_af2_0001_0000900006_0000002_0_0001 (protein)
chain: SSSSDLNQEALELVLEAFRLLLRGDPEEAKELLEEALQVAREGNNERLAEQIEILLRSLKSSSSS
B24: il10ra_site1_sap_12_mot_HHH_b1_05329_000000008_0001_43_56_H_._HHH_b1_04962_0001_0000100003_0000001_0_0001 (protein)
chain: SSSSSHQEVFELLRRAIELAKEGNPEEARELLERAKEIAEELNSRVMKHLIRFVEKVVEDVSSSS
B25: il10ra_site1_sap_19_mot_HHH_b2_00573_000000208_0001_39_53_H_._HHH_b1_02071_0001_0000300025_0000001_0_0001_af2pred_0001 (protein)
chain: SSSSDEEIEERVEELLEEAEHVTDVQEWFRILREALELAAELGDPELQRLVREASRRFIKGSSSS
B26: il10ra_site1_normal_mot_HHH_b2_00475_000000107_0001_44_57_H_._HHH_b1_06647_af2_0001_0000600033_0000002_0 (protein)
chain: SSSSLERRVVELIFRAVRLLANGNPEEAEEVLEEAKELAEELNDEELRRYVEIALHFVRSHSSSS
B27: il10ra_site1_sap_10_mot_HHH_b1_04592_af2_000000261_0001_39_52_H_._HHH_b2_07378_0001_0000100002_0000001_1_0001 (protein)
chain: SSSSSDLAEEAVRLSQEAFHLALRGNPEEARKVLEEALELAEEAGDERLKRVIRDLLSILSSSSS
B28: il10ra_site1_sap_16_mot_HHH_b2_03220_af2_000000223_0001_23_40_H_._HHH_b1_06962_0001_0000300023_0000001_0_0001 (protein)
chain: SSSSDEENRELFELLEEAAELHHEGNPEEARKVLEEARELAEELGNRLFLIQIRFILRLLRSSSS
B29: il10ra_site1_normal_mot_HHH_b2_02043_000000010_0001_1_19_H_._HHH_b1_02566_af2_0001_0000600031_0000001_0 (protein)
chain: SSSNSYEIVREAIEEANELARNGNEEEAEELLEEAIRLLREAGNNAAVFALEQLLRLIEEQSSSS
B30: il10ra_site1_sap_10_mot_HHH_b2_06795_000000133_0001_42_56_H_._HHH_b2_07514_0001_0000100002_0000001_0_0001 (protein)
chain: SSSSDEEEELRRLIEEIQELAEEGDREKFLRLAIEVLRFAIQARNKELFEELWKLIAERFSSSSS
B31: il10ra_site1_sap_14_mot_HHH_b2_02116_af2_000000165_0001_41_55_H_._HHH_b1_06459_0001_0000200026_0000001_0_0001 (protein)
chain: SSSSSSDLEELLEELEKAVEEGDKEKALRIAMEALRLAAQLNDEEAFQELWRLAKEVASSSSSSS
B32: il10ra_site1_normal_mot_513c16ae44941e68898e0f7c259e5a28_0001_1_000000056_0001_35_50_H_._HHH_b1_07409_0001_0000600027_0000001_0 (protein)
chain: SSSSSEEERELIEFIIRLIKQLGNPELAERVEELLEEFEKEGDPEYLREAAEILFRAARLGSSSS
B33: il10ra_site1_normal_mot_HHH_b2_03425_000000200_0001_22_39_H_._HHH_b1_07967_af2_0001_0000100005_0000002_0 (protein)
chain: SSSSNERERLYELLRRLIHLSRHRDEEEFEKVREEIEELVEELNNILARFVLEHIERAFEGSSSS
B34: il10ra_site1_normal_mot_8756ee2cf497b5429c717dfc0c0bcfd6_0001_000000186_0001_1_13_H_._HHH_b1_02799_af2_0001_0000200016_0000001_0 (protein)
chain: SSSSDEEVERVIRLSREAAELDQEGDKEEAEKILREAEEIAEELGNDVLLWQVEYLLELLKSSSS
B35: il10ra_site1_normal_mot_HHH_b1_01821_000000158_0001_23_39_H_._ems_3hM_348_af2_0001_0000400031_0000001_0 (protein)
chain: SDEAQELAEELLQEIWEAFKNNDEETLEEAFEKAREVLEEYNDPNIEAVLRLARFAIESVKDASS
B36: il10ra_site1_normal_mot_HHH_b2_02337_000000026_0001_38_52_H_._HHH_b1_01890_af2_0001_0000100004_0000001_1 (protein)
chain: SSSSDEEEKAEELIREAEELAENGNPEEAARVAQEALRLILELGDEEALQLLWEAVRRLARSSSS
B37: il10ra_site1_sap_18_mot_HHH_b1_02464_000000069_0001_1_19_H_._HHH_b2_01682_0002_0000500034_0000001_0_0001_af2pred_0001 (protein)
chain: SSSSDEEEIEERVEELLEEAKRIEDPEERAYVLTRAYALASRLRDPELEELVREVAIRLSSSSSS

The binders below were run against il10ra, Q13651 (assay: yeast display titration).

Apparent Kd, inactive:
B1 no binding seen
B2 no binding seen
B3 no binding seen
B4 no binding seen
B5 no binding seen
B6 no binding seen
B7 no binding seen
B8 no binding seen
B9 no binding seen
B10 no binding seen
B11 no binding seen
B12 no binding seen
B13 no binding seen
B14 no binding seen
B15 no binding seen
B16 no binding seen
B17 no binding seen
B18 no binding seen
B19 no binding seen
B20 no binding seen
B21 no binding seen
B22 no binding seen
B23 no binding seen
B24 no binding seen
B25 no binding seen
B26 no binding seen
B27 no binding seen
B28 no binding seen
B29 no binding seen
B30 no binding seen
B31 no binding seen
B32 no binding seen
B33 no binding seen
B34 no binding seen
B35 no binding seen
B36 no binding seen
B37 no binding seen

Reprinted at random: 2 entries already listed, in no set order.
Apparent Kd, inactive:
B28 no binding seen
B16 no binding seen
